# Results from patent USRE49708.
# Sequences of proteins named here, by UniProt entry; tags and fusion partners are left off.
# UniProt Q8R0V5: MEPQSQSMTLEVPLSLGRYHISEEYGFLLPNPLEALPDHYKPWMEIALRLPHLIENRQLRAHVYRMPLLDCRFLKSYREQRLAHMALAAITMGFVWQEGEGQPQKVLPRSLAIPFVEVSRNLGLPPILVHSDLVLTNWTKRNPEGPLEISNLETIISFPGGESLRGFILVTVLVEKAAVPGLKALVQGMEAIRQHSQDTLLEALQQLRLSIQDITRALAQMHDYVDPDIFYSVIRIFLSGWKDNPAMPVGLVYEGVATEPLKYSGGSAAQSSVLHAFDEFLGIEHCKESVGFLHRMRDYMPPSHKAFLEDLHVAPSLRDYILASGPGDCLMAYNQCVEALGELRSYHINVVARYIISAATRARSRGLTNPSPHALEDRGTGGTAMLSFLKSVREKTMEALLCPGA
# These are yes or no findings as the source states them, for the method shown. Some entries that bind do so weakly or less than the wild type.
# Target: recombinant muIDO2 protein produced with baculovirus vector pVLmuIDO2 (mouse) (UniProt Q8R0V5)
# Assay: SDS-PAGE of a Mono Q fraction, not reduced or heated (120 kDa band) against heated (about 55 kDa band)
substance,measurement,value
recombinant muIDO2 protein produced with baculovirus vector pVLmuIDO2 (from UniProt Q8R0V5 1-405) (enzyme),binding,binds
